Results as given in publication PMC5705802.
For at least one entry, the source does not settle the construct or the ends of the probe. For part of these data: No signal at the amounts used counts as a negative. For part of these data: Where a protein sequence is shown, tags need not be part of it. For part of these data: Weaker means in comparison with the reference protein, sequence or condition of that experiment.

Sequences of proteins named here, by UniProt entry; tags and fusion partners are left off. A change or cut given only in a name is not applied to a line headed by its entry.
UniProt P01100, whole entry: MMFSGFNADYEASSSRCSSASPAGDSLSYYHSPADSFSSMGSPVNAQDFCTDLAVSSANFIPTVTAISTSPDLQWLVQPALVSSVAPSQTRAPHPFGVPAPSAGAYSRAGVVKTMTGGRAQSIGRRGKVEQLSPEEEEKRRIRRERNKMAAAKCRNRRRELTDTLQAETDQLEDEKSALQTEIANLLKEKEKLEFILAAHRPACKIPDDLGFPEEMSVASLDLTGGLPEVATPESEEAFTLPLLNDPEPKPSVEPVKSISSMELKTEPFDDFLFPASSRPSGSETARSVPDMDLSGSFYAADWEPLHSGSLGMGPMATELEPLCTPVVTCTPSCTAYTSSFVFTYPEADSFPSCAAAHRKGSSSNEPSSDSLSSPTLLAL
UniProt P05412, whole entry: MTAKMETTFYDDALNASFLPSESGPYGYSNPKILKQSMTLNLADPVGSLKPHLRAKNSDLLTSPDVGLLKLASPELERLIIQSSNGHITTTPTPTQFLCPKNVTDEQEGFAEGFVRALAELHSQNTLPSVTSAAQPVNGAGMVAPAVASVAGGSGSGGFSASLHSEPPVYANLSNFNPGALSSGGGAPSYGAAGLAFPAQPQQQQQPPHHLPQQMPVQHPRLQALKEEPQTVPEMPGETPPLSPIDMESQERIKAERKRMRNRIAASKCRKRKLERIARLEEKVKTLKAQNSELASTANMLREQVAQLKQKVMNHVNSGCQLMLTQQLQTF
UniProt O15525: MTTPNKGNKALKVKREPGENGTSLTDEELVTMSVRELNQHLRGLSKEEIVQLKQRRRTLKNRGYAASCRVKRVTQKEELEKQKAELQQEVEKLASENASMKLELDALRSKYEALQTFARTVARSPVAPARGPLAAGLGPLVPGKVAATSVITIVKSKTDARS

Key:
FOS = FOS (UniProt P01100); assay: EMSA; conditions: FOS only, 75 nM; 20 mM HEPES (pH not stated), 4 mM MgCl2, 20 mM KCl, 5 mM DTT, 1 mM EDTA, 100 ug/ml BSA, 4% glycerol, poly(dI-dC), 30 min room temperature; native gel 1X TBE; commercial protein; label: IRDye-700 as probe, unlabeled as competitor
JUN = JUN (UniProt P05412); assay: EMSA; conditions: JUN only, 75 nM; 20 mM HEPES (pH not stated), 4 mM MgCl2, 20 mM KCl, 5 mM DTT, 1 mM EDTA, 100 ug/ml BSA, 4% glycerol, poly(dI-dC), 30 min room temperature; native gel 1X TBE; commercial protein; label: IRDye-700 as probe, unlabeled as competitor
MAFG = MAFG (UniProt O15525); assay: EMSA; conditions: MAFG only, 37.5 nM; 20 mM HEPES (pH not stated), 4 mM MgCl2, 20 mM KCl, 5 mM DTT, 1 mM EDTA, 100 ug/ml BSA, 4% glycerol, poly(dI-dC), 30 min room temperature; native gel 1X TBE; commercial protein; label: IRDye-700 as probe, unlabeled as competitor
NRF1 (Homo sapiens) = target: T1, NRF1 (Homo sapiens) (UniProt Q14494); assay: EMSA; conditions: NRF1 lysate without added MAFG; 20 mM HEPES (pH not stated), 4 mM MgCl2, 20 mM KCl, 5 mM DTT, 1 mM EDTA, 100 ug/ml BSA, 4% glycerol, poly(dI-dC), 30 min room temperature; native gel 1X TBE; protein translated in vitro; protein details: His (plasmid pPB-N-His-NRF1, abm PV028854); label: IRDye-700 as probe, unlabeled as competitor
T1 sequence (looked up, limits assumed): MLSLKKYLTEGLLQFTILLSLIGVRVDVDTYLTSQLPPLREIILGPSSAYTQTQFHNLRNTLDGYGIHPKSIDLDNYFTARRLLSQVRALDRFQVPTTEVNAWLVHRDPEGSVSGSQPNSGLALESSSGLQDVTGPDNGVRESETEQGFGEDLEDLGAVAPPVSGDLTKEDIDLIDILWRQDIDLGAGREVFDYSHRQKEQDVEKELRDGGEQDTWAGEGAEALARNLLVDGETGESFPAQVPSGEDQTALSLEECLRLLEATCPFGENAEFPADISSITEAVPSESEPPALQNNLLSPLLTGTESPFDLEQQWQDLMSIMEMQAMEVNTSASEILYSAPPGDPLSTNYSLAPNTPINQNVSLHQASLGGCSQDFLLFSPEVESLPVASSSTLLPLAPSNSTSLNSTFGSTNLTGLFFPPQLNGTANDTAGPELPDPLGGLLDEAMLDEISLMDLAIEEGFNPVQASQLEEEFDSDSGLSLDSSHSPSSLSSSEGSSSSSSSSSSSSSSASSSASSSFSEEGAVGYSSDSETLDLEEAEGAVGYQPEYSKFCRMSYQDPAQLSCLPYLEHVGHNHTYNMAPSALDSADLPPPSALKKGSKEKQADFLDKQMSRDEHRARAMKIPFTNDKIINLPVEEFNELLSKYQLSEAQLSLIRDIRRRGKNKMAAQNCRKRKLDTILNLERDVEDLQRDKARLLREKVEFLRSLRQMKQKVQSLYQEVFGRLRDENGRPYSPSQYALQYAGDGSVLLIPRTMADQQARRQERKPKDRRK

NRF2 (Homo sapiens) = target: T2, NRF2 (Homo sapiens) (UniProt Q16236); assay: EMSA; conditions: NRF2 only, 75 nM; 20 mM HEPES (pH not stated), 4 mM MgCl2, 20 mM KCl, 5 mM DTT, 1 mM EDTA, 100 ug/ml BSA, 4% glycerol, poly(dI-dC), 30 min room temperature; native gel 1X TBE; recombinant protein; protein details: His, Flag3 (plasmid pPROHEX-HC-Flag3-NRF2); label: IRDye-700 as probe, unlabeled as competitor
T2 sequence (looked up, limits assumed): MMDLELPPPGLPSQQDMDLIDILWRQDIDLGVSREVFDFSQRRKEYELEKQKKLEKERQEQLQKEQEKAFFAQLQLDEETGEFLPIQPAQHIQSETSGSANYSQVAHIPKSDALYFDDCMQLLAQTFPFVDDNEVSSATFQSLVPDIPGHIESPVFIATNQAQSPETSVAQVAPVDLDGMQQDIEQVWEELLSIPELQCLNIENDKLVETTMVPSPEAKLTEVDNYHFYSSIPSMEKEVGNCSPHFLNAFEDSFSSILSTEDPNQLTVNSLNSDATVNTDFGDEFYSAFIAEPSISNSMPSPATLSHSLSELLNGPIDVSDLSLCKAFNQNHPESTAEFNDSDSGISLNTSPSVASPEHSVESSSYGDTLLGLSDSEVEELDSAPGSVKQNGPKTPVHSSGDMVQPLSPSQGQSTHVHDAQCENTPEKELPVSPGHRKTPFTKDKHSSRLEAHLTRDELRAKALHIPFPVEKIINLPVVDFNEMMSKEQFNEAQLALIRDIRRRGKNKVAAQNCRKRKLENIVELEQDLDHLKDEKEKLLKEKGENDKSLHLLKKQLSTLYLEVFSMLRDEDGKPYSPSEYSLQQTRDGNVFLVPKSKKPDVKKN

NRF1 + MAFG = assay: competition EMSA; conditions: unlabeled vs labeled N1, legend: competes less efficiently than A allele, main text: does not compete; 20 mM HEPES (pH not stated), 4 mM MgCl2, 20 mM KCl, 5 mM DTT, 1 mM EDTA, 100 ug/ml BSA, 4% glycerol, poly(dI-dC), 30 min room temperature; native gel 1X TBE; protein translated in vitro; protein details: His (plasmid pPB-N-His-NRF1, abm PV028854); label: unlabeled competitor

Sequence	binding result (FOS)	binding result (JUN)	binding result (MAFG)	binding result (NRF1 (Homo sapiens))	binding result (NRF2 (Homo sapiens))	binding result (NRF1 + MAFG)
AATCCGCAGTCACAGTGACTCAGCAGAATCTGAGCCTAG (double strand) [NQO1 ARE WT (NQO1WT)]	no binding	no binding	no binding	no binding	no binding	–
CTGCGCTCCAAACCCGCTGTGTCGTACCATACCGGATGT (double strand) [MS4A6A rs667897G]	–	–	–	–	–	binds more weakly
